Measurements from article PMC12141716, “An archaeal nucleoid-associated protein binds an essential motif in DNA replication origins” (Nature Communications, 2025).
These are yes or no findings as the source states them, for the method shown. Some entries that bind do so weakly or less than the wild type. Where a sequence is shown, tags or fusion partners need not be part of it.

Columns and labels:
Experiment in all cases: two-hybrid; yeast, Matchmaker (Clontech), pGADT7 prey and pGBKT7 bait; growth on His plates
[1] = target: T1, MCM A domain (residues 1-106), yeast two-hybrid fusion (Sulfolobus islandicus REY15A) (UniProt F0NF15)
T1 sequence: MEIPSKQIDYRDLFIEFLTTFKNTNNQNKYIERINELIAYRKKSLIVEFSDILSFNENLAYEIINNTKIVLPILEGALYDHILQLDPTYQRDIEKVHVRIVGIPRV

[2] = target: T2, MCM, yeast two-hybrid fusion (Sulfolobus islandicus REY15A) (UniProt F0NF15)
T2 sequence: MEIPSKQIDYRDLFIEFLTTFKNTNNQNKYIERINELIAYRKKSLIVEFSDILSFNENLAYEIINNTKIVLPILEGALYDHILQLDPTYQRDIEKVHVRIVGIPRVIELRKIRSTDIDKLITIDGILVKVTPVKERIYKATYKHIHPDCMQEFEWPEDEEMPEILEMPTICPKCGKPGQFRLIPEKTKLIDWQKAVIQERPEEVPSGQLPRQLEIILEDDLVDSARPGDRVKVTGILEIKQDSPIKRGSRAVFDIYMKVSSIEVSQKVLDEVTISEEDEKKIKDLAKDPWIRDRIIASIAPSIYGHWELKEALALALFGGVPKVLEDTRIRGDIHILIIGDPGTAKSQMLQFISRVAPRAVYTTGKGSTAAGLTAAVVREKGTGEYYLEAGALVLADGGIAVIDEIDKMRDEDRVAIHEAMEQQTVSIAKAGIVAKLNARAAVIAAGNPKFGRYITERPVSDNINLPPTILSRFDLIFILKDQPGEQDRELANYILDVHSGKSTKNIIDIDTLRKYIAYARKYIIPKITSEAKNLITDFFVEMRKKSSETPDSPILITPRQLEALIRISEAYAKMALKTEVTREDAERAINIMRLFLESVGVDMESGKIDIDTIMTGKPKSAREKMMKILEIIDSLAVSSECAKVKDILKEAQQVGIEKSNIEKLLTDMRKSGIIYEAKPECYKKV

[3] = target: T3, MCM B/C domains (residues 107-266), yeast two-hybrid fusion (Sulfolobus islandicus REY15A) (UniProt F0NF15)
T3 sequence: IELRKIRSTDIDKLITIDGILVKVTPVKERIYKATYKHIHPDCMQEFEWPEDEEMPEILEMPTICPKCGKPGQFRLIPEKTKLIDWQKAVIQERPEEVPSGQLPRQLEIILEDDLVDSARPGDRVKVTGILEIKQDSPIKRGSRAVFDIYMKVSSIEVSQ

[4] = target: T4, MCM N-terminal domains (residues 1-266), yeast two-hybrid fusion (Sulfolobus islandicus REY15A) (UniProt F0NF15)
T4 sequence: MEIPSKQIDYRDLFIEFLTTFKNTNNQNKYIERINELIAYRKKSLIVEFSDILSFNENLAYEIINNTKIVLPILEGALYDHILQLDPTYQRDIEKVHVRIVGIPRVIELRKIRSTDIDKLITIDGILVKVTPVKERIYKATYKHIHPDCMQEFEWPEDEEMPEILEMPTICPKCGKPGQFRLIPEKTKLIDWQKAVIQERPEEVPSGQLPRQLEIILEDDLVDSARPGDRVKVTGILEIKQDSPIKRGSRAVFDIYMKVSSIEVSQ

binding [1]: binds
binding [2]: binds
binding [3]: binds
binding [4]: binds
B1: UBP, yeast two-hybrid fusion (protein, UniProt F0NFD3 1-111)
chain: MIVMRVKVNEKQFDMIIDKLKLMVYEYNTKIKEYGVYLKPYHIVYKNSKRYIYIGKYWYKLEKIGGKLKWIYLGKTKPIQNMPNPPQIPESTIIKEDNEYIVDEKILYDLE
